# Library screen at single concentrations

Protein sequences, listed by entry. Tags and fused reporters are not part of them. Residues count along the entry.
UniProt P9WNZ1, whole entry: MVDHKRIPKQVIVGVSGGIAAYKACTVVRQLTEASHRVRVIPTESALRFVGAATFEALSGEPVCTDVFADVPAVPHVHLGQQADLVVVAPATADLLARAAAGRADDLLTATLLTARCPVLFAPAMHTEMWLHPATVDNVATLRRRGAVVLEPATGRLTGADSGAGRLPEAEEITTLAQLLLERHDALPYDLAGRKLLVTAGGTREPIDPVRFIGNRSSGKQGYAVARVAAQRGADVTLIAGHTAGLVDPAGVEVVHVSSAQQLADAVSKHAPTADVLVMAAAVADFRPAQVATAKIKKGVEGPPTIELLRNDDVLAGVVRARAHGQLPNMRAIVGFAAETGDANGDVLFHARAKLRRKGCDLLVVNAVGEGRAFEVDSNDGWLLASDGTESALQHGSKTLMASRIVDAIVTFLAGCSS
UniProt P9WFT3, whole entry: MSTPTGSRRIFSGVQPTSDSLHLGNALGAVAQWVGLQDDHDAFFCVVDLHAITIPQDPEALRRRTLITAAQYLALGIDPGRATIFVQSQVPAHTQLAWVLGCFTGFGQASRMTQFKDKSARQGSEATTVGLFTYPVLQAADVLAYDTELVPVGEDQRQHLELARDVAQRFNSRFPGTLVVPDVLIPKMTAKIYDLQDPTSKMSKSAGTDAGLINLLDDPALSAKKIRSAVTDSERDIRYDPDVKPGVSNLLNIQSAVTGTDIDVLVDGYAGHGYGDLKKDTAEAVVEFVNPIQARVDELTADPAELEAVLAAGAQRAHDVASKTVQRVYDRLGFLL
UniProt A4I591, 1-473: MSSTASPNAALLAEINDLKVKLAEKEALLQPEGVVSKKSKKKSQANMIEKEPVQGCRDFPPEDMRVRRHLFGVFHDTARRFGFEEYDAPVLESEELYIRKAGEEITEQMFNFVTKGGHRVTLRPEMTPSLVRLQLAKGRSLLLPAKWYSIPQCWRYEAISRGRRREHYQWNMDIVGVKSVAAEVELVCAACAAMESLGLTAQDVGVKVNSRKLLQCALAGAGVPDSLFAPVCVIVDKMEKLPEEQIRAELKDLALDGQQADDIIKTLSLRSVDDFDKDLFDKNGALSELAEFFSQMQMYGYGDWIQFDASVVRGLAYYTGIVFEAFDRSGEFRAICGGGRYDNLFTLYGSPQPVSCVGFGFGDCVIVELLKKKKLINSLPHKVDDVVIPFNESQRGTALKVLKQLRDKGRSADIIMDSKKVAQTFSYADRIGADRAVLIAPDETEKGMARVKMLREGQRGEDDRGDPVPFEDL

A: 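Coenzyme A biosynthesis protein CoaBC, Mycobacterium tuberculosis (UniProt P9WNZ1). Enzyme assay of CoaBC with a phosphate dye (Biomol Green) read at 650 nm. Concentration: 30 µM. Higher reads as stronger inhibition, judged from the few compounds that gave an IC50. Most strong results did not repeat in a second test. About 67,000 compounds were tested under these conditions; 0.06% (about 40) showed 50% or more at least once.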
B: 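Assay of Toxoplasma gondii numbers, read through their beta-galactosidase reporter with a colour substrate. Tested at 10 µM. Higher reads as fewer parasites (inferred from which compounds were picked for retests). Size under these conditions: about 67,000 compounds, about 260 of them at 50% or above in at least one test.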
C: 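Cell assay of Leishmania donovani living inside macrophages; the read-out is not stated. Concentration: 30 µM. Direction is inferred from retests: higher values go with stronger inhibition. About 69,000 compounds were tested under these conditions; 1.5% (about 1,000) showed 50% or more at least once.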
D: 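Enzyme assay of tryptophanyl-tRNA synthetase; the read-out is not stated. Target: Tryptophan-tRNA ligase, Mycobacterium tuberculosis (UniProt P9WFT3). Compounds at 10 µM. Higher most likely means stronger inhibition; the record gives no direction and few retests gave an IC50. Of about 65,000 compounds tested this way, about 64 (0.098%) reached 50% or more in at least one test.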
E: 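Histidine-tRNA ligase, Leishmania infantum (UniProt A4I591). Enzyme assay of histidyl-tRNA synthetase; the read-out is not stated. Concentration: 30 µM. Direction is inferred from retests: higher values go with stronger inhibition. The assay is labelled LdHisRS but filed under L. infantum. Of about 69,000 compounds tested this way, about 410 (0.6%) reached 50% or more in at least one test.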

Results are given as percent effect. The record does not define 0% and 100%; most values in the screen are far below 50% and negative numbers occur (in some assays of this library far below -100). This is an unselected part of the compounds tested. Two or more numbers in one place are separate tests of the same structure; such repeats can differ widely. A dash means the value is not listed here; it may have been measured.

structure	A	B	C	D	E
CCc1ncnc2c1CCN(CCOC)CC2.O=C(O)C(F)(F)F	-	-10%	35.4%	-	-
O=C(O)C(F)(F)F.O=C(O)C(F)(F)F.O=C(O)C(F)(F)F.[H][C@@]12CCN(Cc3ccccn3)[C@@]1([H])CC(=O)N2Cc1cccnc1	-	-12.39%	10.07%	-	-
Cc1cccc(CN2CCc3ncnc(-c4ccsc4)c3CC2)n1.O=C(O)C(F)(F)F	-	12.99%	24.43%	-	-
O=C(NC1CC1)N1CC[C@@H](O)[C@@H]1Cc1ccccc1	5.647%	-8.533%	3.923%	-6.302%	17.43%
COc1cccc(CN(C)CCCn2cnc3c(N)ncnc32)c1	1.818%	2.915%	14.95%	1.762%	18.37%
CN(C)c1ccccc1CN1CCCC(N2CCCC2=O)C1 (centres unmarked)	7.004%	0.7955%	8.695%	-2.279%	2.703%
COc1ccccc1CC(=O)N1CCC(NCc2cccnc2)CC1	-3.373%	-3.339%	5.471%	-1.652%	-30.77%
CCn1cnnc1C1CCN(C(=O)C(OC)c2ccccc2)CC1 (centres unmarked)	7.949%	-5.729%	25.64%	-1.016%	29.33%
CCN(Cc1ncc(C(C)(C)C)o1)Cc1ccccc1C	2.948%	-9.726%	-16.83%	-1.419%	8.73%
CC(C)N(Cc1cccc(Cl)c1)Cc1nnsc1Cl	-9.234%	-2.086%	1.515%	-0.7261%	9.649%
COc1cc(C)c(-c2ccc(F)c3c2OC(CN)C3)cc1C (centres unmarked)	-41.19%	-2.747%	82.34%	-4.152%	24.29%
Cc1ccc2c(c1)c(CNC(=O)C1CC(=O)N(CCN(C)C)C1)nn2C (centres unmarked)	0.2141%	7.398%	7.875%	-5.008%	23.33%
CC(C)[C@H]1CN(Cc2nccn2C)C[C@@H]1NC(=O)COCC(N)=O	-1.05%	17.66%	21.09%	0.9266%	6.667%
CC(=O)N1CC(C)CN(C(=O)c2cscn2)c2ccccc21 (centres unmarked)	4.04%	-4.9%	-22.4%	2.581%	18.09%
CCN(CC)C(=O)CCn1ncc2c(Cl)cccc21	3.903%	-5.738%	0.8417%	-3.618%	9.709%
CN1CCN(c2ncc3c(c2C(=O)O)CCN(C2CCOC2)C3)CC1.O=C(O)C(F)(F)F.O=C(O)C(F)(F)F (centres unmarked)	-	-4.045%	11.05%	-	-
CCOCCN1CCN(CC2(O)CCCCC2)CC1	19.65%	2.962%	20.01%	3.694%	5.714%
NC(=O)CCCNC(=O)CCc1cc(Br)cs1	8.367%	-1.438%	-12.53%	1.433%	16.44%
O=C(O)C(F)(F)F.[H][C@@]12OCCN(CCOCc3ccccc3)[C@@]1([H])CC[C@H]2OCC	-	14.78%	-6.409%	-	-
Cc1nc(-n2cnnc2)ccc1-c1cccc2c1CCNC2	-1.24%	-22.66%	11.85%	2.611%	13.33%
CCOc1ccc(NC(C)c2nnnn2-c2ccccc2)cc1CO (centres unmarked)	0.128%	-5.587%	-23.63%	2.057%	4.938%
CCNC(=O)[C@@H]1CCCN1[C@@H](C(=O)NC)c1ccccc1.Cl	-	6.564%	15.81%	-	-
CN(C)CC(=O)N1CCC2(CC1)Cc1ccccc1CN(C)C2=O.O=C(O)C(F)(F)F	-	-0.9442%	23.84%	-	-
c1cc2c(c(-c3cc(N4CCOCC4)ncn3)c1)CCNC2	4.435%	-2.554%	11.22%	-3.43%	23.68%
CC1(C)CC(N(Cc2ccncc2)Cc2cccnc2)CC(C)(C)N1.O=C(O)CC(O)(CC(=O)O)C(=O)O	-	8.475%	26.52% and -6.574%	-	-
COCCCC1CCCN(C(=O)CCc2csc(N)n2)C1 (centres unmarked)	12.7%	2.024%	1.07%	0.243%	22.22%
CCc1noc(C(C)N2CCC(N3CCCCC3)CC2)n1 (centres unmarked)	3.916%	-0.8986%	27.47%	-8.284%	10.34%
O=C(c1cc(CC2(NCC3CCCCC3)COC2)no1)N1CCCCC1	0.2257%	2.445%	29%	-0.9789%	27.78%
CC(C)(C)CNC(=O)CNC(=O)C1CC1	-1.071%	-2.179%	-16.29%	-0.9723%	17.24%
FC(F)(F)Sc1ccc(NCc2nnc(C3CC3)o2)cc1	-5.556%	-12.14%	-37.55%	-1.273%	5.051%
CCS(=O)(=O)N1C[C@@H](OCc2cccnc2)[C@H]2OCCC[C@H]21	-0.9009%	-	-	-1.055%	9.804%
Cc1ncccc1C(=O)NC1(c2cccc(F)c2)CCOCC1	2.558%	-0.5461%	11.39%	4.438%	20.43%
Cn1ncc(NC(=O)c2noc3c2CCCC3)c1C(N)=O	-0.1227%	1.513%	2.655%	-	-4.124%
CC(C)OCCC(=O)Nc1c(-c2ccc(F)cc2)ncn1C	-3.241%	3.835%	-4.014%	-3.187%	7.937%
O=C1CC2(CCN(C(=O)c3ccncc3)CC2)Oc2c(Cl)cc(Cl)cc21	3.883%	-2.662%	49.43%	-	19.8%
Cc1nn2cccnc2c1C(=O)N1CCCC(n2ccnc2)C1 (centres unmarked)	2.216%	8.473%	11.6%	1.605%	17.57%
O=C(O)C(F)(F)F.c1csc(CN2CCC3(CCOCC3COCC3CC3)CC2)n1 (centres unmarked)	-	15.6%	9.137%	-	-
c1cnc(N2C[C@H](OCC3CCOCC3)[C@H]3COC[C@H]32)nc1	-	-	-	0.1079%	3.448%

The first 3 entries again:

| structure | A | B | C | D | E |
|---|---|---|---|---|---|
| `CCc1ncnc2c1CCN(CCOC)CC2.O=C(O)C(F)(F)F` | - | -10% | 35.4% | - | - |
| `O=C(O)C(F)(F)F.O=C(O)C(F)(F)F.O=C(O)C(F)(F)F.[H][C@@]12CCN(Cc3ccccn3)[C@@]1([H])CC(=O)N2Cc1cccnc1` | - | -12.39% | 10.07% | - | - |
| `Cc1cccc(CN2CCc3ncnc(-c4ccsc4)c3CC2)n1.O=C(O)C(F)(F)F` | - | 12.99% | 24.43% | - | - |

Measurements from “University of Dundee, Small-Polar-MMV Screening Library” (2021), ChEMBL document CHEMBL3988442.